These are yes or no findings as the source states them, for the method shown. Binding seen in cells or lysates may run through a third protein. Some binding calls cover weakened binding; strength is not graded here. Blank lines part the entries; values can stand above or below the binder they belong to.
Key:
Assay in all cases: pull-down; S. cerevisiae Smc5/6 subunits co-expressed in E. coli Rosetta (DE3), one subunit with a Twin-Strep tag (N- or C-terminal); clarified lysate on Strep-Tactin Sepharose, 1 h at 4°C, 50 mM Tris-HCl pH 7.5, 300 mM NaCl, 5% glycerol; eluted with 2.5 mM desthiobiotin; Coomassie-stained SDS-PAGE
[1] = molecular target: T1, S. cerevisiae Nse2 (S. cerevisiae), P38632; conditions: remark: other sources report otherwise
T1 chain: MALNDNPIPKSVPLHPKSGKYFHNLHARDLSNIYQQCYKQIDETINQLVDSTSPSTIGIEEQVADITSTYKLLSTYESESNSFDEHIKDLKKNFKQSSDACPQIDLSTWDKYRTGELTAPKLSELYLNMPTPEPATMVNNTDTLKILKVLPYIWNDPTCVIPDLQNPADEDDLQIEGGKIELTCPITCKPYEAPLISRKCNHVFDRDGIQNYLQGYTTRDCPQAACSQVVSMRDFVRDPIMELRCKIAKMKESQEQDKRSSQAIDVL

[2] = molecular target: T2, S. cerevisiae Nse1 (S. cerevisiae) (UniProt Q07913)
T2 sequence: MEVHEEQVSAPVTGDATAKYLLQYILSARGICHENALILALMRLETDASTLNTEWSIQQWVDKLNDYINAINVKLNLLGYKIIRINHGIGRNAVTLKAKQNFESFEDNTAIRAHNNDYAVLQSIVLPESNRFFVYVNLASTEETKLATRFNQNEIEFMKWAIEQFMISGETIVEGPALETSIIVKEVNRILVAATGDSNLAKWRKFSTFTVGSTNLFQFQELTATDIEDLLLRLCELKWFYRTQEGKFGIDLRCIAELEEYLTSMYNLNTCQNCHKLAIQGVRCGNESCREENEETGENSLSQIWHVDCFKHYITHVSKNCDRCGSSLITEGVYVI

[3] = molecular target: T3, S. cerevisiae Nse3 (S. cerevisiae) (UniProt Q05541)
T3 sequence: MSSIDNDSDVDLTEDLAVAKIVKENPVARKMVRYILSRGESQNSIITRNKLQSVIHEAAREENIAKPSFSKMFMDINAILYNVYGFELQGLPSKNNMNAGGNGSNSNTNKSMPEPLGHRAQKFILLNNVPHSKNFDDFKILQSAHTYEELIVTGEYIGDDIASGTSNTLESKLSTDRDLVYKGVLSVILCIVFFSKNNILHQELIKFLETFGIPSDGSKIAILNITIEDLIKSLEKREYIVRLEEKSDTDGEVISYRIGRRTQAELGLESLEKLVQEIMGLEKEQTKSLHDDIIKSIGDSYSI

[4] = molecular target: T4, S. cerevisiae Smc5 (S. cerevisiae) (UniProt Q08204)
T4 sequence: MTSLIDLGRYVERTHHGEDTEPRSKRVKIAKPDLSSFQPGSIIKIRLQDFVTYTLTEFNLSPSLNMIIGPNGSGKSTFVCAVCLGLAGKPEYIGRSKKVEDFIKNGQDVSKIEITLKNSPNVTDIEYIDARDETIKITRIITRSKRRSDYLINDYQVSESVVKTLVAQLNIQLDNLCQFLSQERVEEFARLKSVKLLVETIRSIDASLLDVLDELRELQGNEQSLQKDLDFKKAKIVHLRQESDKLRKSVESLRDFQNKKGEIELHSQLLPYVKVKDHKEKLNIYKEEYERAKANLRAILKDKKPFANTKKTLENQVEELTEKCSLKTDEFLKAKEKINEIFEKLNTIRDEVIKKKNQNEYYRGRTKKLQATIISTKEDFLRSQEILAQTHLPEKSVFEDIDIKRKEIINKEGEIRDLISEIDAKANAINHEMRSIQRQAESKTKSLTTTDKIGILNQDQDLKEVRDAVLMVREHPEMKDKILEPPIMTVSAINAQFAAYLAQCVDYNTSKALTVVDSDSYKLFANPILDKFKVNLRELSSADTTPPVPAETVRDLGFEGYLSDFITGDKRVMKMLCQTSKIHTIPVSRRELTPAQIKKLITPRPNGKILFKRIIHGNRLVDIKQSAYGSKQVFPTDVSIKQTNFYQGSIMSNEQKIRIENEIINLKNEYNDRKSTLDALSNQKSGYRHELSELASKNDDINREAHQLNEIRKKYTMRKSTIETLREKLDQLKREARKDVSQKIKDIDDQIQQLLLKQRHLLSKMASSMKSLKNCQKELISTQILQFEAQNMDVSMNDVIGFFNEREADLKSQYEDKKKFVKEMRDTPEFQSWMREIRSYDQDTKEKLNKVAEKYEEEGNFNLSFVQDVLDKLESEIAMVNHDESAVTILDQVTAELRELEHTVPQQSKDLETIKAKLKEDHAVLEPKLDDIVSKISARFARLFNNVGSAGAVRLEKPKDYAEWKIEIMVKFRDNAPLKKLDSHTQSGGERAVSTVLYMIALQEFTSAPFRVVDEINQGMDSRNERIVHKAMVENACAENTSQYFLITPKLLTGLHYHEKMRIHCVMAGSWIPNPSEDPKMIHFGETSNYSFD

[5] = molecular target: T5, S. cerevisiae Nse2 (S. cerevisiae) (UniProt P38632)
T5 sequence: T1 chain

[6] = molecular target: T6, S. cerevisiae Nse4 (S. cerevisiae) (UniProt P43124)
T6 sequence: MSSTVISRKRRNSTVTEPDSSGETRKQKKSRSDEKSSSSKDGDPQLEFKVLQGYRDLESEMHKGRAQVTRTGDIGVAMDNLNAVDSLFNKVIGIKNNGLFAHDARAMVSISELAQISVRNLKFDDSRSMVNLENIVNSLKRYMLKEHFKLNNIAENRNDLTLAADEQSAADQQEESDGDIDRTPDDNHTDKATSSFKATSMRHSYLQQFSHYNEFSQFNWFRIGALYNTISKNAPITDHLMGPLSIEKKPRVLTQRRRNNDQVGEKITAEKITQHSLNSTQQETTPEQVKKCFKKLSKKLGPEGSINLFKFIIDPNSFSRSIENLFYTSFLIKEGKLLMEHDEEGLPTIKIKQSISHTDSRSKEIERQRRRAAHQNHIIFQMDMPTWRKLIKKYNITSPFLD

binding [1]: binds
B1: S. cerevisiae Nse4, P43124 1-402 (protein)
chain: T6 sequence

binding [1]: binds
B2: S. cerevisiae Nse3, Q05541 1-303 (protein)
chain: T3 sequence

binding [2]: binds
binding [3]: binds
binding [4]: binds
binding [5]: binds
binding [6]: binds
B3: S. cerevisiae Smc6 (protein, UniProt Q12749 1-1114)
chain: MISTTISGKRPIEQVDDELLSLTAQQENEEQQQQRKRRRHQFAPMTQFNSNTLDEDSGFRSSSDVATADQDNFLEESPSGYIKKVILRNFMCHEHFELELGSRLNFIVGNNGSGKSAILTAITIGLGAKASETNRGSSLKDLIREGCYSAKIILHLDNSKYGAYQQGIFGNEIIVERIIKRDGPASFSLRSENGKEISNKKKDIQTVVDYFSVPVSNPMCFLSQDAARSFLTASTSQDKYSHFMKGTLLQEITENLLYASAIHDSAQENMALHLENLKSLKAEYEDAKKLLRELNQTSDLNERKMLLQAKSLWIDVAHNTDACKNLENEISGIQQKVDEVTEKIRNRQEKIERYTSDGTTIEAQIDAKVIYVNEKDSEHQNARELLRDVKSRFEKEKSNQAEAQSNIDQGRKKVDALNKTIAHLEEELTKEMGGDKDQMRQELEQLEKANEKLREVNNSLVVSLQDVKNEERDIQHERESELRTISRSIQNKKVELQNIAKGNDTFLMNFDRNMDRLLRTIEQRKNEFETPAIGPLGSLVTIRKGFEKWTRSIQRAISSSLNAFVVSNPKDNRLFRDIMRSCGIRSNIPIVTYCLSQFDYSKGRAHGNYPTIVDALEFSKPEIECLFVDLSRIERIVLIEDKNEARNFLQRNPVNVNMALSLRDRRSGFQLSGGYRLDTVTYQDKIRLKVNSSSDNGTQYLKDLIEQETKELQNIRDRYEEKLSEVRSRLKEIDGRLKSTKNEMRKTNFRMTELKMNVGKVVDTGILNSKINERKNQEQAIASYEAAKEELGLKIEQIAQEAQPIKEQYDSTKLALVEAQDELQQLKEDINSRQSKIQKYKDDTIYYEDKKKVYLENIKKIEVNVAALKEGIQRQIQNACAFCSKERIENVDLPDTQEEIKRELDKVSRMIQKAEKSLGLSQEEVIALFEKCRNKYKEGQKKYMEIDEALNRLHNSLKARDQNYKNAEKGTCFDADMDFRASLKVRKFSGNLSFIKDTKSLEIYILTTNDEKARNVDTLSGGEKSFSQMALLLATWKPMRSRIIALDEFDVFMDQVNRKIGTTLIVKKLKDIARTQTIIITPQDIGKIADIDSSGVSIHRMRDPERQNNSNFYN

Source: PMC11612967
